Measured values from article doi:10.1101/2019.12.20.882282.
Results are given in words; binding and its absence hold for the method and conditions named. In cells and extracts the contact can be indirect. Some binding calls cover weakened binding; strength is not graded here.

The chains behind the UniProt entries cited, without tags or fusion partners.
UniProt Q91YE5: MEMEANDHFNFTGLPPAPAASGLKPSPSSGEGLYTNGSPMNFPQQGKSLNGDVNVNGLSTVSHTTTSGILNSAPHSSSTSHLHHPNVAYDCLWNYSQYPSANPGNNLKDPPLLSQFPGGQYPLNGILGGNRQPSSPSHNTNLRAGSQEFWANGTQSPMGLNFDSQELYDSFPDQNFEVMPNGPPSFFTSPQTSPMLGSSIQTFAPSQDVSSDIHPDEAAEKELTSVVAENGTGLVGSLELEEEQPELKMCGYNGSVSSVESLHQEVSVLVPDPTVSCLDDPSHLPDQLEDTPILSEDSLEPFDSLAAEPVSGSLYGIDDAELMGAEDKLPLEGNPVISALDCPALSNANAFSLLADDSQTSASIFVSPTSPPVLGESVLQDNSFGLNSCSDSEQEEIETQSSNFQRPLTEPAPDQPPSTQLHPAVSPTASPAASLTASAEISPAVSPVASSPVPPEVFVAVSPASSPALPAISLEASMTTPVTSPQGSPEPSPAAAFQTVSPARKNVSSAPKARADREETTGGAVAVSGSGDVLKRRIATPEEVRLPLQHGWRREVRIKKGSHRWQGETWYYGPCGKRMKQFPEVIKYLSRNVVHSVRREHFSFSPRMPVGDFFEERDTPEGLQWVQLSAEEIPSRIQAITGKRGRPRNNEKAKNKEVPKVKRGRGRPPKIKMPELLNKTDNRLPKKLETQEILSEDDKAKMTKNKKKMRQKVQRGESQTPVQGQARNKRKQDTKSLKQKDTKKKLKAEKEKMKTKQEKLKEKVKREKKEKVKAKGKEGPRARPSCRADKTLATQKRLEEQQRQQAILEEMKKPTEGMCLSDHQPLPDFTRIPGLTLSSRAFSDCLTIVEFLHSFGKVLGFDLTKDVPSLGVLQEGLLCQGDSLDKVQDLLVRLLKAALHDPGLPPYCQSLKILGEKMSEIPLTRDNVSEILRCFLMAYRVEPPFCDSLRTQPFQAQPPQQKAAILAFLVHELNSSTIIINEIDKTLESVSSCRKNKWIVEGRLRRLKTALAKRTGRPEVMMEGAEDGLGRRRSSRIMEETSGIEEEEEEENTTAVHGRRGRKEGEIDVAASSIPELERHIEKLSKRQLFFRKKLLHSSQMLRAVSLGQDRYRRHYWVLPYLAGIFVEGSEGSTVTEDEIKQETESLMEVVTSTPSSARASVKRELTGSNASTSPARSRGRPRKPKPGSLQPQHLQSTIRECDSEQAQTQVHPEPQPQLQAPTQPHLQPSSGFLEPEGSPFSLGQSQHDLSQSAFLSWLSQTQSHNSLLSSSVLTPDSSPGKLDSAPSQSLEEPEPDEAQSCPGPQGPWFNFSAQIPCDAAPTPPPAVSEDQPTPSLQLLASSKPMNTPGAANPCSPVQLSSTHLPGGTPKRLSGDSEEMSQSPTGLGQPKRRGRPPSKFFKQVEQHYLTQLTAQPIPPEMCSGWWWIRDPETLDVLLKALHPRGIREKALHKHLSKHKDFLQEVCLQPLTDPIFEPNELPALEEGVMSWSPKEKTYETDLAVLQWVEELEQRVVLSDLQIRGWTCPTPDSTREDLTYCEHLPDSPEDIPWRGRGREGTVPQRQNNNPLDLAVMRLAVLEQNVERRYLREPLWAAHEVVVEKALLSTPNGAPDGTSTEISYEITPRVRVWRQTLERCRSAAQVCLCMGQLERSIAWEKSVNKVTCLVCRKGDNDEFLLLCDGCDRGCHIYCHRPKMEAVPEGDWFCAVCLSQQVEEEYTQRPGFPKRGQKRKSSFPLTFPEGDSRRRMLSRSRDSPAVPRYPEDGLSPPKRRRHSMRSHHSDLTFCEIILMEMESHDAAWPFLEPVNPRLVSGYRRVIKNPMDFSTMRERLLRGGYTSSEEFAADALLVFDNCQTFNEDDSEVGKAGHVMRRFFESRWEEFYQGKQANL
UniProt Q91ZW3: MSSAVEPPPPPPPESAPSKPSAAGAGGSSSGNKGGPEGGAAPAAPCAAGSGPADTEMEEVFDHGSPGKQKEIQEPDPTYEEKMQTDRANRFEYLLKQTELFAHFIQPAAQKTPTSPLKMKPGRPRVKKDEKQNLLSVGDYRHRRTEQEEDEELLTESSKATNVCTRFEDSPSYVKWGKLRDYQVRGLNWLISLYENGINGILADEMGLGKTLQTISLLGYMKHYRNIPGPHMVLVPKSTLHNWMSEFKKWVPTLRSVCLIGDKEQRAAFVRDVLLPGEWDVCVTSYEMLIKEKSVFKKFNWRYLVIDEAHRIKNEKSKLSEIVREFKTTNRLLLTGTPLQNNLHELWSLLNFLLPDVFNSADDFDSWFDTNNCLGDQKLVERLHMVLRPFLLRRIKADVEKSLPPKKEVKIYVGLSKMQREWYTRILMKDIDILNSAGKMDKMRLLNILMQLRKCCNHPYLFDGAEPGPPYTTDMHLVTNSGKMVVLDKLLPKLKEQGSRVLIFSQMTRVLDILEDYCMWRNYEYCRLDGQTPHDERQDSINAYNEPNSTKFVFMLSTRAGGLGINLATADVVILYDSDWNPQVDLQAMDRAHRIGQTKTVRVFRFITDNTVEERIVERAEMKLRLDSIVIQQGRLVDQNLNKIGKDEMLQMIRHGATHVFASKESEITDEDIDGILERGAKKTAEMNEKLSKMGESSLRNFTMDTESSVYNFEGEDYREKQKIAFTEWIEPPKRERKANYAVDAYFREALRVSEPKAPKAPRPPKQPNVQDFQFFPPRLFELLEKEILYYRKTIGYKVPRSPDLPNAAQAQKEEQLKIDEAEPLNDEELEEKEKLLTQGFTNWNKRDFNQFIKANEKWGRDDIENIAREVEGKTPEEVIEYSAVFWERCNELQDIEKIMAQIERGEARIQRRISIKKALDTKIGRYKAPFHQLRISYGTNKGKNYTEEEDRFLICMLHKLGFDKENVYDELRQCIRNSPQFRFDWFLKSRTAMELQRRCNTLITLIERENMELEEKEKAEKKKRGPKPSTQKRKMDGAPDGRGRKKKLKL
UniProt Q01320: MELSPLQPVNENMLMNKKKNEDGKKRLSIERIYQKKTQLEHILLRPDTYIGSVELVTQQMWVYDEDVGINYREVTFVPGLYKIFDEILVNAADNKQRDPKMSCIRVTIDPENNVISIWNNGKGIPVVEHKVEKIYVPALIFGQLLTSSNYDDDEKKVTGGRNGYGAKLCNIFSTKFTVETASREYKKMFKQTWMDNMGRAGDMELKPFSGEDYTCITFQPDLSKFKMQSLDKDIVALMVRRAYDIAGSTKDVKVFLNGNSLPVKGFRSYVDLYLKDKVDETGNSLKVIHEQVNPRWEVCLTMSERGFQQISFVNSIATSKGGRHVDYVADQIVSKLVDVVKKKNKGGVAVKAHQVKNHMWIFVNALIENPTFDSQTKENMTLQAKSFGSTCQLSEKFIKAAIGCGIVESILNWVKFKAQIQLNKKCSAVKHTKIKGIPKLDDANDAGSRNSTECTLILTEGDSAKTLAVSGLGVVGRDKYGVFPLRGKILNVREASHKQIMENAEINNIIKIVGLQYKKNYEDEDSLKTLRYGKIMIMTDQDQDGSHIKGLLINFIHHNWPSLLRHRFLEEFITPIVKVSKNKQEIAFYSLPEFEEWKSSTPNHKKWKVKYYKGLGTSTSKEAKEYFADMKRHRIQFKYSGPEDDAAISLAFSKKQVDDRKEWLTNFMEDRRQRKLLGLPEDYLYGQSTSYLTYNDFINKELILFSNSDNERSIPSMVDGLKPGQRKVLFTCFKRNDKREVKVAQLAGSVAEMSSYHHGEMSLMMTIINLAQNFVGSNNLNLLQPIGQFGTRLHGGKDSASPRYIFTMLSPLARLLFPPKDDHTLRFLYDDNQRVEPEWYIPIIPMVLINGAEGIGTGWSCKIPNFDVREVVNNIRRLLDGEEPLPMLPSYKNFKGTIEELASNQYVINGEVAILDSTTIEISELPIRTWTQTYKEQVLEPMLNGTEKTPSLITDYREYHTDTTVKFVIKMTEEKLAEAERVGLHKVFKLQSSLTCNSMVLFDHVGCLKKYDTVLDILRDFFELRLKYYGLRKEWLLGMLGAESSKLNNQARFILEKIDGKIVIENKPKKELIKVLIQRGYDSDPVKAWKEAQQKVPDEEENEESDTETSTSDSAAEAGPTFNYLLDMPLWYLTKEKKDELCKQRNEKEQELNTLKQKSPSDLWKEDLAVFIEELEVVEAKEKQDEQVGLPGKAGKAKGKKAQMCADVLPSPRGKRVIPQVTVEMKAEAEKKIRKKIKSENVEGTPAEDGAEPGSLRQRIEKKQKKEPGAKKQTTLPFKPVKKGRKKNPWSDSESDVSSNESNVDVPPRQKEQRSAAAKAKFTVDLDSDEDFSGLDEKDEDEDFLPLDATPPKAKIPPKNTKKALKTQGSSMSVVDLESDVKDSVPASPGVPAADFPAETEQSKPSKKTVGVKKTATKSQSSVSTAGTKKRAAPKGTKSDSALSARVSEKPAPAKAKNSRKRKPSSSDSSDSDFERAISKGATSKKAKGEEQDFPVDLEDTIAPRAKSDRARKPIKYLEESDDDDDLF

B1: SMC1a (protein, UniProt Q9CU62 1-1233)
chain: MGFLKLIEIENFKSYKGRQIIGPFQRFTAIIGPNGSGKSNLMDAISFVLGEKTSNLRVKTLRDLIHGAPVGKPAANRAFVSMVYSEEGAEDRTFARVIVGGSSEYKINNKVVQLHEYSEELEKLGILIKARNFLVFQGAVESIAMKNPKERTALFEEISRSGELAQEYDKRKKEMVKAEEDTQFNYHRKKNIAAERKEAKQEKEEADRYQRLKDEVVRAQVQLQLFKLYHNEVEIEKLNKELASKNKEIEKDKKRMDKVEDELKEKKKELGKMMREQQQIEKEIKEKDSELNQKRPQYIKAKENTSHKIKKLEAAKKSLQNAQKHYKKRKGDMDELEKEMLSVEKARQEFEERMEEESQSQGRDLTLEENQVKKYHRLKEEASKRAATLAQELEKFNRDQKADQDRLDLEERKKVETEAKIKQKLREIEENQKRIEKLEEYITTSKQSLEEQKKLEGELTEEVEMAKRRIDEINKELNQVMEQLGDARIDRQESSRQQRKAEIMESIKRLYPGSVYGRLIDLCQPTQKKYQIAVTKVLGKNMDAIIVDSEKTGRDCIQYIKEQRGEPETFLPLDYLEVKPTDEKLRELKGAKLVIDVIRYEPPHIKKALQYACGNALVCDNVEDARRIAFGGHQRHKTVALDGTLFQKSGVISGGASDLKAKARRWDEKAVDKLKEKKERLTEELKEQMKAKRKEAELRQVQSQAHGLQMRLKYSQSDLEQTKTRHLALNLQEKSKLESELANFGPRINDIKRIIQSREREMKDLKEKMNQVEDEVFEEFCREIGVRNIREFEEEKVKRQNEIAKKRLEFENQKTRLGIQLDFEKNQLKEDQDKVHMWEQTVKKDENEIEKLKKEEQRHMKIIDETMAQLQDLKNQHLAKKSEVNDKNHEMEEIRKKLGGANKEMTHLQKEVTAIETKLEQKRSDRHNLLQACKMQDIKLPLSKGTMDDISQEEGSSQGEESVSGSQRTSSIYAREALIEIDYGDLCEDLKDAQAEEEIKQEMNTLQQKLNEQQSVLQRIAAPNMKAMEKLESVRDKFQETSDEFEAARKRAKKAKQAFEQIKKERFDRFNACFESVATNIDEIYKALSRNSSAQAFLGPENPEEPYLDGINYNCVAPGKRFRPMDNLSGGEKTVAALALLFAIHSYKPAPFFVLDEIDAALDNTNIGKVANYIKEQSTCNFQAIVISLKEEFYTKAESLIGVYPEQGDCVISKVLTFDLTKYPDANPNPNEQ

Target: FLAG-HA-tagged TIP5 (F/H-TIP5) (mouse (endogenous in 129/OlaHsd mouse ESCs)) (UniProt Q91YE5)
Assay: co-IP

Molecule	binding
SNF2H (SMARCA5) (from UniProt Q91ZW3 1-1051)	binds
DNA topoisomerase 2A (TOP2A) (from UniProt Q01320 1-1528)	binds
B1	binds
